Laboratory results taken from paper PMC11423089.
Results are given in words; binding and its absence hold for the method and conditions named. For some assays here: Binding seen in cells or lysates may run through a third protein. Some results given as binding are weak or reduced against the parent protein; the word gives no strength. For some assays here: Sequences can lack the tags named with a protein.

The chains behind the UniProt entries cited, without tags or fusion partners.
UniProt Q96RR4: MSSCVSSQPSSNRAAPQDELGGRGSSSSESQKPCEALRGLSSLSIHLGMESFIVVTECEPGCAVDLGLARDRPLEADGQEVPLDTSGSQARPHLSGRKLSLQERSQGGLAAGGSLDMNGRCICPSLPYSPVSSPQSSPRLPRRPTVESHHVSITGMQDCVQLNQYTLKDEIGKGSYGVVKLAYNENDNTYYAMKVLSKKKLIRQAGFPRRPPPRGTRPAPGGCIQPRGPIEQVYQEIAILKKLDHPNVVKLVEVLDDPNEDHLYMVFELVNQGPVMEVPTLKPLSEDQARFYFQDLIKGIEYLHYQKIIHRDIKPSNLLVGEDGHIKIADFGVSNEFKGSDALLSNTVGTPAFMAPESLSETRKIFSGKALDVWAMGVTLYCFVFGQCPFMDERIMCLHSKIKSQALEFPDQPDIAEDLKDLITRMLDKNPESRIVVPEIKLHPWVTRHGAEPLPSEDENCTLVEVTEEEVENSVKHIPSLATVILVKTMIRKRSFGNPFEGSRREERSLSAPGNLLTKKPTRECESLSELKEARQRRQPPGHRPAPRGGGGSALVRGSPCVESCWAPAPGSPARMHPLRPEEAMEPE

Key:
[1] = target: T1, recombinant TIPRL (GST pull‐down) (UniProt O75663); assay: pull-down; in vitro GST pull-down of recombinant TIPRL and CaMKK2; which protein carried GST is not stated; both purified
T1 sequence: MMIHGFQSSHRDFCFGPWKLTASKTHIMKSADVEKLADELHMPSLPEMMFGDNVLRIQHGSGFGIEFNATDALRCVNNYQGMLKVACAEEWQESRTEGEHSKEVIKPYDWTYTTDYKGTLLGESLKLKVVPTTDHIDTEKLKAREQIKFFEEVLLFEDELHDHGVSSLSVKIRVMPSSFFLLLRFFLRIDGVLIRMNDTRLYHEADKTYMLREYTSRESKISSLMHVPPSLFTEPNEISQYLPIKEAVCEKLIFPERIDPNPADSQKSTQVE

[2] = target: T2, TOR Signaling Pathway Regulator‐Like (TIPRL) (human (endogenous in A549)) (UniProt O75663); assay: co-IP; endogenous proteins from A549 lysates (lysis buffer A: 20 mM HEPES pH 7.5, 150 mM NaCl, 1 mM EDTA, 2 mM EGTA, 1% Triton X-100, 10% glycerol); 1 µg antibody against TIPRL, CaMKK2 or PP2Ac, or normal IgG, protein G sepharose, overnight at 4 °C; for CaMKK2 with PP2Ac the cells were transfected with siTIPRL or control siRNA, or overexpressed TIPRL
T2 sequence: T1 sequence

Row | Substance | binding [1] | binding [2]
1 | recombinant CaMKK2 (GST pull‐down) (from UniProt Q96RR4 1-588) (enzyme) | binds | 
2 | calcium/calmodulin‐dependent protein kinase kinase 2 (CaMKK2) (from UniProt Q96RR4 1-588) (enzyme) |  | binds
